No constants are given. Whether binding was seen depends on the method and setting. Some entries that bind do so weakly or less than the wild type. Sequences can lack the tags named with a protein.
How the values were obtained:
Assay in all cases: SPR, binder captured
[1] = biological target: soluble recombinant of human FasL (His6, Pro134-Leu281) (human) (UniProt P48023)
[2] = biological target: T1, soluble recombinant of mouse TL1A (His6, GS linker, Ile94-Leu270) (mouse) (UniProt Q5UBV8)
T1 sequence: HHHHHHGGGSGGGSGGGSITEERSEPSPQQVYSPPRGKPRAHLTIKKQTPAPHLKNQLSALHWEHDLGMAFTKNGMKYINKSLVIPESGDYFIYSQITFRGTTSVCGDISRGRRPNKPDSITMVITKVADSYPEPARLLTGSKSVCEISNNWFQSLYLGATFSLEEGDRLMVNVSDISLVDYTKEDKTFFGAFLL

By UniProt entry, the sequences of proteins in these tests, tags left out. Where a name states a change or a piece, a line headed by the entry shows the natural chain unless it says otherwise.
UniProt P48023: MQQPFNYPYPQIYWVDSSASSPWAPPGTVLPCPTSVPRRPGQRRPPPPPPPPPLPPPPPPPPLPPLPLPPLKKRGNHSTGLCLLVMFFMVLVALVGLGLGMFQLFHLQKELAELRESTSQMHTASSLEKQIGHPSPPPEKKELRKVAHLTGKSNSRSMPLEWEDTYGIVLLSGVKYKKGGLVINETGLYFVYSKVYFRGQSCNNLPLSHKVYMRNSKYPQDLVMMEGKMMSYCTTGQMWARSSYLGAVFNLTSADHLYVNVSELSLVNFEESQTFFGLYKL
UniProt Q5UBV8: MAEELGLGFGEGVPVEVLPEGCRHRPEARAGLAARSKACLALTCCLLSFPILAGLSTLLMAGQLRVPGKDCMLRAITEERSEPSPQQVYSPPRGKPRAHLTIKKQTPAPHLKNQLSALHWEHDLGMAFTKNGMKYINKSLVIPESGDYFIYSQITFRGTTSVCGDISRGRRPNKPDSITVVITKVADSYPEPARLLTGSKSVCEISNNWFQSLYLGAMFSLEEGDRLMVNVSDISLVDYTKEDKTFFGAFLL
UniProt P41047: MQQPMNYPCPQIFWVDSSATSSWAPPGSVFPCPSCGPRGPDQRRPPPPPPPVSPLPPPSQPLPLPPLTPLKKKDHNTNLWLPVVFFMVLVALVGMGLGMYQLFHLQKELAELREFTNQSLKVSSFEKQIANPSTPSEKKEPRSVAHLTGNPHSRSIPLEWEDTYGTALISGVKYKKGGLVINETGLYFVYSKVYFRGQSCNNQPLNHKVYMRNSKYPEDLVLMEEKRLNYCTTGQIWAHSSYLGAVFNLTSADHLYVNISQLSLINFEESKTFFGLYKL
UniProt P63308: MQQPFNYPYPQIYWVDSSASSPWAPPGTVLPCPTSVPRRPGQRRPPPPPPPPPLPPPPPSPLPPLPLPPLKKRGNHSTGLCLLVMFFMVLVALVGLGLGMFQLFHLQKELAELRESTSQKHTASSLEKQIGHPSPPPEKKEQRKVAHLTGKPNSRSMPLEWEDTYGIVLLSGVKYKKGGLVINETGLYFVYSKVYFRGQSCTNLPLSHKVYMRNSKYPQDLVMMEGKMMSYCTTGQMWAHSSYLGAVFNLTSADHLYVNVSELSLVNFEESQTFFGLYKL

[3] = biological target: soluble recombinant of mouse FasL (His6, Pro132-Leu279) (mouse) (UniProt P41047)
[4] = biological target: soluble recombinant of human LIGHT (His10, GS linker, Asp74-Val240) (human)
[5] = biological target: T2, soluble recombinant of cynomolgus monkey TL1A (His6, GS linker, Leu72-Leu251) (cynomolgus monkey)
T2 sequence: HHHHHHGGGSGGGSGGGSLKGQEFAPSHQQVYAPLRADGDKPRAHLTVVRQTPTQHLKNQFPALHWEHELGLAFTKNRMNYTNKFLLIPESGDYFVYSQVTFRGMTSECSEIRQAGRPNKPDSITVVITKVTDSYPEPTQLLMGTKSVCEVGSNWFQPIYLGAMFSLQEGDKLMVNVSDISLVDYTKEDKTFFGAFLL

[6] = biological target: soluble recombinant of cynomolgus monkey FasL (His6, Pro133-Leu280) (cynomolgus monkey) (UniProt P63308)
[7] = biological target: soluble recombinant of cynomolgus monkey LIGHT (His10, GS linker, Asp74-Val240) (cynomolgus monkey)

Measured: binding

B1: DcR3 FL-Fc (R&D Systems, Inc.) (Fc fusion, not shown: a dimerising Fc or GST)
chain: VAETPTYPWRDAETGERLVCAQCPPGTFVQRPCRRDSPTTCGPCPPRHYTQFWNYLERCRYCNVLCGEREEEARACHATHNRACRCRTGFFAHAGFCLEHASCPPGAGVIAPGTPSQNTQCQPCPPGTFSASSSSSEQCQPHRNCTALGLALNVPGSSSHDTLCTSCTGFPLSTRVPGAEECERAVIDFVAFQDISIKRLQRLLQALEAPEGWGPTPRAGRAALQLKLRRRLTELLGAQDGALLVRLLQALRVARMPGLERSVRERFLPVHIEGRMD
binds: [1] | [2] | [3] | [4] | [5] | [6] | [7]

Reference: patent publication US20220340642A1
